These are yes or no findings as the source states them, for the method shown. In cells and extracts the contact can be indirect. Here binding means that the protein was enriched with, or labelled near, the bait; the list need not be complete.

By UniProt entry, the sequences of proteins in these tests, tags left out.
UniProt P29341: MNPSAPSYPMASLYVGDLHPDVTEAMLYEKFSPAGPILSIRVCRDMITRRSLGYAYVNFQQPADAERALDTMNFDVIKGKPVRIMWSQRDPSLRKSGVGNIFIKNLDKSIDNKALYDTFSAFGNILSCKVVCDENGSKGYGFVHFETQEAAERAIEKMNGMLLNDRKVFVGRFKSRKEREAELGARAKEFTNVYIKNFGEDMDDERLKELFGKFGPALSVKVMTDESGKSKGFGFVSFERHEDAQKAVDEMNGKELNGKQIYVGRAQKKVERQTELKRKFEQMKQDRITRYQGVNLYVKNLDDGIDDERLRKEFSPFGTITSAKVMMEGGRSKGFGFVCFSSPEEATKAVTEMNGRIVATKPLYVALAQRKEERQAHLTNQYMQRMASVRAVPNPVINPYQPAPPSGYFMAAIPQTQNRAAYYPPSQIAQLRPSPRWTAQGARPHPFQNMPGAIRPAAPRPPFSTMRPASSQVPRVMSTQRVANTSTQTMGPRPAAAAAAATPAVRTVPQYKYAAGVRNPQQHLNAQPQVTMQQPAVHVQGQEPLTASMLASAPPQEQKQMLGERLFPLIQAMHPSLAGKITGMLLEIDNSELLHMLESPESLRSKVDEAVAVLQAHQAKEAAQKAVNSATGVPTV

For the test, the target named is T1, ADP-ribosylation factor collaborator (CARF) (mouse (endogenous in testis)) (UniProt Q8BI72).
T1 sequence: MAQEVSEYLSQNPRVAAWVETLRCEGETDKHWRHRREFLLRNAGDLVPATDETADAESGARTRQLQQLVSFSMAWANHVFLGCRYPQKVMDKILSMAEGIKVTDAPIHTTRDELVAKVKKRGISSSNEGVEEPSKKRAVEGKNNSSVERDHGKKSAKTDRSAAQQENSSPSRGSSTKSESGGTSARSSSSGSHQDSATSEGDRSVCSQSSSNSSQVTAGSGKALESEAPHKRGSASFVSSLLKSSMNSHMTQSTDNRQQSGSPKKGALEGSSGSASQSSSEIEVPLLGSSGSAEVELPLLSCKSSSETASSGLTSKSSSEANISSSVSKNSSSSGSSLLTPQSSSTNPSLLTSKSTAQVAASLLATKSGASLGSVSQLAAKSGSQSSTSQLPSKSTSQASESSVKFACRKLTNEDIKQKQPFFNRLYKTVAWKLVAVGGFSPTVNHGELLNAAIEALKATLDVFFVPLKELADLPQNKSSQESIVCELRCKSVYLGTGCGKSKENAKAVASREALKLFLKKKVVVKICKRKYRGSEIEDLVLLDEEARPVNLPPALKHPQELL
Kind of test: affinity purification with mass spectrometry; testis protein extracts of wild-type and Carf-/- mice in IP buffer incubated with antibodies or control IgG at 4°C overnight, protein A and protein G Dynabeads 6 h; SDS-PAGE, differing bands cut for mass spectrometry.

As to “poly-A binding protein cytoplasmic 1 (PABPC1) (from UniProt P29341 1-636)”, the binding result is “binds”.

For the origin of these results see article PMC12040762.
